Measurements: the supplement of paper PMC6078165
The reference is the same well before dosing, and untreated signal decays as well.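 Fibroblast labels denote human fibroblasts, mainly primary ones from uterus (C12385, HUF), lung (H6013), bone (Hs27A), adrenal (HADF) and skin (WS1), plus mammary HMF and breast cancer-associated Hs343T. Cancer cells are basal-like or mesenchymal-like triple-negative breast cancer lines. A hit is a response shift exceeding 3x replicate standard deviation. The tissue of the other fibroblasts is not given here.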

System: MDAMB468
Test: relative JC-1 red fluorescence (viability) vs pre-drug, coculture with fibroblast (fraction); higher = more viable cancer cells
Description: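 JC-1 labelled TNBC cells cocultured 1:1 (1,500 cells each) with CellTrace Violet stained primary or stromal fibroblasts in 384-well plates in FluoroBrite medium, treated with one of 42 anticancer drugs at 0.1, 1, 10 or 100 uM. JC-1 red fluorescence (mitochondrial integrity in cancer cells only) was read by plate reader every 8 h for 72 h. Values are normalised to each well's pre-drug value. The stock of one drug was tenfold lower, so its dose labels may be too high.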

CC(=O)c1c(C)c2cnc(Nc3ccc(N4CCNCC4)cn3)nc2n(C2CCCC2)c1=O [Palbociclib]
relative JC-1 red fluorescence
Conditions | 8 h | 16 h | 24 h | 32 h | 40 h | 48 h | 56 h | 64 h | 72 h
0.1 µM, coculture fibroblast: C12385 | 0.889 | 0.826 | 0.785 | 0.739 | 0.701 | 0.699 | 0.657 | 0.632 | 0.628
0.1 µM, coculture fibroblast: H6013 | 0.89903 | 0.8285 | 0.802 | 0.802 | 0.788 | 0.804 | 0.777 | 0.772 | 0.72
0.1 µM, coculture fibroblast: H6019 | 0.822 | 0.836 | 0.822 | 0.78 | 0.745 | 0.74 | 0.686 | 0.656 | 0.631
0.1 µM, coculture fibroblast: H6076 | 0.958 | 0.884 | 0.927 | 0.938 | 0.87 | 0.868 | 0.828 | 0.83 | 0.888
0.1 µM, coculture fibroblast: H6231 | 0.826 | 0.88 | 0.942 | 0.88 | 0.841 | 0.814 | 0.744 | 0.708 | 0.6737
0.1 µM, coculture fibroblast: HADF | 0.8944 | 0.8202 | 0.776 | 0.768 | 0.708 | 0.709 | 0.676 | 0.6694 | 0.6335
0.1 µM, coculture fibroblast: HCFa | 0.879 | 0.811 | 0.753 | 0.719 | 0.641 | 0.629 | 0.573 | 0.536 | 0.497
0.1 µM, coculture fibroblast: HCPF | 0.8779 | 0.991 | 0.911 | 0.899 | 0.842 | 0.806 | 0.743 | 0.714 | 0.692
0.1 µM, coculture fibroblast: HHSteC | 0.9014 | 0.848 | 0.805 | 0.773 | 0.73 | 0.732 | 0.668 | 0.647 | 0.603
0.1 µM, coculture fibroblast: HMF | 0.8495 | 0.936 | 0.918 | 0.879 | 0.832 | 0.81 | 0.752 | 0.721 | 0.694
0.1 µM, coculture fibroblast: HPFa | 0.914 | 0.87 | 0.82 | 0.761 | 0.701 | 0.689 | 0.621 | 0.588 | 0.52
0.1 µM, coculture fibroblast: HUF | 0.9188 | 0.848 | 0.799 | 0.733 | 0.684 | 0.655 | 0.606 | 0.579 | 0.555
0.1 µM, coculture fibroblast: Hs5 | 0.786 | 0.916 | 0.964 | 0.952 | 0.869 | 0.834 | 0.791 | 0.749 | 0.768
0.1 µM, coculture fibroblast: Hs27A | 0.866 | 0.805 | 0.771 | 0.7793 | 0.71 | 0.711 | 0.657 | 0.635 | 0.587
0.1 µM, coculture fibroblast: Hs343T | 0.9088 | 0.924 | 0.936 | 0.895 | 0.822 | 0.793 | 0.7184 | 0.696 | 0.659
0.1 µM, coculture fibroblast: WS1 | 0.8784 | 0.773 | 0.718 | 0.667 | 0.611 | 0.585 | 0.564 | 0.545 | 0.538
1 µM, coculture fibroblast: C12385 | 0.90499 | 0.8191 | 0.831 | 0.788 | 0.743 | 0.738 | 0.696 | 0.6793 | 0.6727
1 µM, coculture fibroblast: H6013 | 0.9216 | 0.8988 | 0.885 | 0.901 | 0.903 | 0.927 | 0.91 | 0.918 | 0.874
1 µM, coculture fibroblast: H6019 | 0.8175 | 0.815 | 0.785 | 0.731 | 0.698 | 0.678 | 0.638 | 0.599 | 0.57
1 µM, coculture fibroblast: H6076 | 0.925 | 0.879 | 0.942 | 0.946 | 0.892 | 0.88 | 0.853 | 0.842 | 0.889
1 µM, coculture fibroblast: H6231 | 0.842 | 0.955 | 0.863 | 0.857 | 0.814 | 0.789 | 0.726 | 0.7 | 0.673
1 µM, coculture fibroblast: HADF | 0.9113 | 0.869 | 0.817 | 0.8154 | 0.772 | 0.7611 | 0.7281 | 0.724 | 0.685
1 µM, coculture fibroblast: HCFa | 0.875 | 0.858 | 0.814 | 0.793 | 0.7406 | 0.7378 | 0.688 | 0.65 | 0.592
1 µM, coculture fibroblast: HCPF | 0.8922 | 0.9443 | 0.882 | 0.883 | 0.829 | 0.812 | 0.76 | 0.748 | 0.733
1 µM, coculture fibroblast: HHSteC | 0.94 | 0.8946 | 0.864 | 0.842 | 0.816 | 0.813 | 0.764 | 0.743 | 0.691
1 µM, coculture fibroblast: HMF | 0.862 | 0.9359 | 0.881 | 0.861 | 0.799 | 0.794 | 0.754 | 0.737 | 0.725
1 µM, coculture fibroblast: HPFa | 0.966 | 0.9246 | 0.884 | 0.84 | 0.804 | 0.79 | 0.732 | 0.696 | 0.618
1 µM, coculture fibroblast: HUF | 0.9348 | 0.831 | 0.7922 | 0.73801 | 0.689 | 0.658 | 0.611 | 0.585 | 0.561
1 µM, coculture fibroblast: Hs5 | 0.724 | 0.95 | 0.933 | 0.927 | 0.869 | 0.844 | 0.813 | 0.781 | 0.804
1 µM, coculture fibroblast: Hs27A | 0.8942 | 0.868 | 0.8215 | 0.8366 | 0.772 | 0.77 | 0.723 | 0.696 | 0.641
1 µM, coculture fibroblast: Hs343T | 0.903 | 0.9474 | 0.917 | 0.91 | 0.853 | 0.835 | 0.795 | 0.785 | 0.766
1 µM, coculture fibroblast: WS1 | 0.896 | 0.801 | 0.751 | 0.695 | 0.653 | 0.625 | 0.599 | 0.574 | 0.566
10 µM, coculture fibroblast: C12385 | 0.92 | 0.9112 | 0.91088 | 0.8846 | 0.8659 | 0.8775 | 0.82879 | 0.7803 | 0.746
10 µM, coculture fibroblast: H6013 | 0.932 | 0.932 | 0.923 | 0.839 | 0.958 | 0.848 | 0.889 | 0.86 | 0.866
10 µM, coculture fibroblast: H6019 | 0.8774 | 0.883 | 0.896 | 0.847 | 0.831 | 0.81 | 0.757 | 0.73 | 0.718
10 µM, coculture fibroblast: H6076 | 0.97567 | 0.823 | 0.803 | 0.7339 | 0.928 | 0.83 | 0.928 | 0.911 | 0.913
10 µM, coculture fibroblast: H6231 | 0.8322 | 0.801 | 0.86 | 0.893 | 0.827 | 0.785 | 0.955 | 0.943 | 0.903
10 µM, coculture fibroblast: HADF | 0.9243 | 0.937 | 0.9226 | 0.976 | 0.932 | 0.941 | 0.908 | 0.903 | 0.881
10 µM, coculture fibroblast: HCFa | 0.8978 | 0.903 | 0.9048 | 0.9149 | 0.858 | 0.847 | 0.7925 | 0.7501 | 0.7051
10 µM, coculture fibroblast: HCPF | 0.8871 | 0.748 | 0.777 | 0.759 | 0.834 | 0.851 | 0.845 | 0.943 | 0.878
10 µM, coculture fibroblast: HHSteC | 0.9559 | 0.9366 | 0.918 | 0.933 | 0.902 | 0.9216 | 0.8834 | 0.872 | 0.828
10 µM, coculture fibroblast: HMF | 0.8548 | 0.757 | 0.791 | 0.925 | 0.967 | 0.937 | 0.889 | 0.877 | 0.827
10 µM, coculture fibroblast: HPFa | 0.959 | 0.849 | 0.879 | 0.821 | 0.86 | 0.9262 | 0.935 | 0.912 | 0.85
10 µM, coculture fibroblast: HUF | 0.951 | 0.921 | 0.903 | 0.86077 | 0.8331 | 0.8132 | 0.7692 | 0.7359 | 0.7153
10 µM, coculture fibroblast: Hs5 | 0.89 | 0.771 | 0.788 | 0.883 | 0.862 | 0.839 | 0.83 | 0.967 | 0.88
10 µM, coculture fibroblast: Hs27A | 0.88556 | 0.899 | 0.859 | 0.863 | 0.805 | 0.784 | 0.749 | 0.721 | 0.697
10 µM, coculture fibroblast: Hs343T | 0.911 | 0.883 | 0.836 | 0.92 | 0.802 | 0.785 | 0.874 | 0.875 | 0.834
10 µM, coculture fibroblast: WS1 | 0.919 | 0.8944 | 0.909 | 0.9124 | 0.89 | 0.849 | 0.829 | 0.785 | 0.756
100 µM, coculture fibroblast: C12385 | 0.587 | 0.471 | 0.447 | 0.408 | 0.378 | 0.379 | 0.363 | 0.349 | 0.332
100 µM, coculture fibroblast: H6013 | 0.575 | 0.3722 | 0.3159 | 0.2697 | 0.25 | 0.2276 | 0.199 | 0.176 | 0.128
100 µM, coculture fibroblast: H6019 | 0.554 | 0.388 | 0.336 | 0.273 | 0.237 | 0.218 | 0.178 | 0.158 | 0.143
100 µM, coculture fibroblast: H6076 | 0.926 | 0.821 | 0.861 | 0.852 | 0.797 | 0.744 | 0.681 | 0.637 | 0.67
100 µM, coculture fibroblast: H6231 | 0.8756 | 0.939 | 0.974 | 0.966 | 0.93 | 0.913 | 0.865 | 0.842 | 0.817
100 µM, coculture fibroblast: HADF | 0.556 | 0.388 | 0.321 | 0.274 | 0.254 | 0.232 | 0.2 | 0.186 | 0.131
100 µM, coculture fibroblast: HCFa | 0.647 | 0.382 | 0.31 | 0.265 | 0.235 | 0.215 | 0.184 | 0.157 | 0.115
100 µM, coculture fibroblast: HCPF | 0.895 | 0.8908 | 0.736 | 0.694 | 0.74 | 0.7 | 0.647 | 0.633 | 0.618
100 µM, coculture fibroblast: HHSteC | 0.611 | 0.419 | 0.354 | 0.295 | 0.278 | 0.264 | 0.216 | 0.196 | 0.148
100 µM, coculture fibroblast: HMF | 0.8147 | 0.9081 | 0.813 | 0.7756 | 0.622 | 0.556 | 0.491 | 0.444 | 0.421
100 µM, coculture fibroblast: HPFa | 0.876 | 0.558 | 0.47 | 0.386 | 0.372 | 0.357 | 0.303 | 0.284 | 0.221
100 µM, coculture fibroblast: HUF | 0.687 | 0.461 | 0.401 | 0.339 | 0.296 | 0.274 | 0.235 | 0.212 | 0.193
100 µM, coculture fibroblast: Hs5 | 0.913 | 0.888 | 0.851 | 0.7583 | 0.592 | 0.532 | 0.481 | 0.43 | 0.437
100 µM, coculture fibroblast: Hs27A | 0.582 | 0.396 | 0.327 | 0.286 | 0.262 | 0.242 | 0.219 | 0.196 | 0.148
100 µM, coculture fibroblast: Hs343T | 0.864 | 0.932 | 0.788 | 0.692 | 0.546 | 0.497 | 0.442 | 0.41 | 0.391
100 µM, coculture fibroblast: WS1 | 0.448 | 0.367 | 0.309 | 0.25 | 0.209 | 0.185 | 0.155 | 0.13 | 0.115
